Reference: PMC12280211
Results are given in words; binding and its absence hold for the method and conditions named. In cells and extracts the contact can be indirect. Some entries that bind do so weakly or less than the wild type.

Molecular target: T1, phosphorylated TANK-binding kinase 1 (phospho-Ser172) (human (endogenous in MDA-MB-468)) (UniProt Q9UHD2)
T1 sequence (chain, phosphoserine at 172): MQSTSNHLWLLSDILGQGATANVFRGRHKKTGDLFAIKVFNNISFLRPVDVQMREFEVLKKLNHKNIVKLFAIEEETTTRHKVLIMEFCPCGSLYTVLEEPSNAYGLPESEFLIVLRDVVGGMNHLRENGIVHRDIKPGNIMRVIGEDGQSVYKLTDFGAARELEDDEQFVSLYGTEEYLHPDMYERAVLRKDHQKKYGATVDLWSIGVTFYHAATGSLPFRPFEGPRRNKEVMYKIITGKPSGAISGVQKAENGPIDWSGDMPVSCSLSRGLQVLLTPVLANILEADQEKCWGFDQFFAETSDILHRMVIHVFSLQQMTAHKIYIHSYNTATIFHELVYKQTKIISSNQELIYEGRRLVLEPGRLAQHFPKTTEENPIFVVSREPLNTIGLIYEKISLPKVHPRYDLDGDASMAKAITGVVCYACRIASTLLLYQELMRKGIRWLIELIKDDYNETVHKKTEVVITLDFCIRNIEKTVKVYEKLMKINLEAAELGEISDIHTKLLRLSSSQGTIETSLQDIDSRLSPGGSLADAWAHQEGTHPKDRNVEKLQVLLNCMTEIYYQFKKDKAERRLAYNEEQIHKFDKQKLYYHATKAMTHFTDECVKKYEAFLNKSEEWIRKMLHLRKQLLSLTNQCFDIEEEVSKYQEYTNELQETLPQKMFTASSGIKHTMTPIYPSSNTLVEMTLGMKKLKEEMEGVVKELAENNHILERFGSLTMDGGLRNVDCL
Assay: co-IP; pTBK1 precipitated with a phospho-TBK1 (Ser172) antibody on Dynabeads protein A from MDA-MB-468 lysates (50 mM Tris pH 8, 150 mM NaCl, 1% Triton, 1 mM DTT, 1 mM MgCl2), 2 h at 4 °C, Western blot; rabbit IgG as control; cells treated with SAR405, 8 Gy X-rays ± SAR405 or taxol ± SAR405

binding: binds
Substance: selective autophagy receptor p62 (from UniProt Q13501 1-440)
